# These are yes or no findings as the source states them, for the method shown. Binding seen in cells or lysates may run through a third protein. Here binding means that the protein was enriched with, or labelled near, the bait; the list need not be complete.
# Amino acid sequences for entries named in this document (tags omitted).
# UniProt O95477: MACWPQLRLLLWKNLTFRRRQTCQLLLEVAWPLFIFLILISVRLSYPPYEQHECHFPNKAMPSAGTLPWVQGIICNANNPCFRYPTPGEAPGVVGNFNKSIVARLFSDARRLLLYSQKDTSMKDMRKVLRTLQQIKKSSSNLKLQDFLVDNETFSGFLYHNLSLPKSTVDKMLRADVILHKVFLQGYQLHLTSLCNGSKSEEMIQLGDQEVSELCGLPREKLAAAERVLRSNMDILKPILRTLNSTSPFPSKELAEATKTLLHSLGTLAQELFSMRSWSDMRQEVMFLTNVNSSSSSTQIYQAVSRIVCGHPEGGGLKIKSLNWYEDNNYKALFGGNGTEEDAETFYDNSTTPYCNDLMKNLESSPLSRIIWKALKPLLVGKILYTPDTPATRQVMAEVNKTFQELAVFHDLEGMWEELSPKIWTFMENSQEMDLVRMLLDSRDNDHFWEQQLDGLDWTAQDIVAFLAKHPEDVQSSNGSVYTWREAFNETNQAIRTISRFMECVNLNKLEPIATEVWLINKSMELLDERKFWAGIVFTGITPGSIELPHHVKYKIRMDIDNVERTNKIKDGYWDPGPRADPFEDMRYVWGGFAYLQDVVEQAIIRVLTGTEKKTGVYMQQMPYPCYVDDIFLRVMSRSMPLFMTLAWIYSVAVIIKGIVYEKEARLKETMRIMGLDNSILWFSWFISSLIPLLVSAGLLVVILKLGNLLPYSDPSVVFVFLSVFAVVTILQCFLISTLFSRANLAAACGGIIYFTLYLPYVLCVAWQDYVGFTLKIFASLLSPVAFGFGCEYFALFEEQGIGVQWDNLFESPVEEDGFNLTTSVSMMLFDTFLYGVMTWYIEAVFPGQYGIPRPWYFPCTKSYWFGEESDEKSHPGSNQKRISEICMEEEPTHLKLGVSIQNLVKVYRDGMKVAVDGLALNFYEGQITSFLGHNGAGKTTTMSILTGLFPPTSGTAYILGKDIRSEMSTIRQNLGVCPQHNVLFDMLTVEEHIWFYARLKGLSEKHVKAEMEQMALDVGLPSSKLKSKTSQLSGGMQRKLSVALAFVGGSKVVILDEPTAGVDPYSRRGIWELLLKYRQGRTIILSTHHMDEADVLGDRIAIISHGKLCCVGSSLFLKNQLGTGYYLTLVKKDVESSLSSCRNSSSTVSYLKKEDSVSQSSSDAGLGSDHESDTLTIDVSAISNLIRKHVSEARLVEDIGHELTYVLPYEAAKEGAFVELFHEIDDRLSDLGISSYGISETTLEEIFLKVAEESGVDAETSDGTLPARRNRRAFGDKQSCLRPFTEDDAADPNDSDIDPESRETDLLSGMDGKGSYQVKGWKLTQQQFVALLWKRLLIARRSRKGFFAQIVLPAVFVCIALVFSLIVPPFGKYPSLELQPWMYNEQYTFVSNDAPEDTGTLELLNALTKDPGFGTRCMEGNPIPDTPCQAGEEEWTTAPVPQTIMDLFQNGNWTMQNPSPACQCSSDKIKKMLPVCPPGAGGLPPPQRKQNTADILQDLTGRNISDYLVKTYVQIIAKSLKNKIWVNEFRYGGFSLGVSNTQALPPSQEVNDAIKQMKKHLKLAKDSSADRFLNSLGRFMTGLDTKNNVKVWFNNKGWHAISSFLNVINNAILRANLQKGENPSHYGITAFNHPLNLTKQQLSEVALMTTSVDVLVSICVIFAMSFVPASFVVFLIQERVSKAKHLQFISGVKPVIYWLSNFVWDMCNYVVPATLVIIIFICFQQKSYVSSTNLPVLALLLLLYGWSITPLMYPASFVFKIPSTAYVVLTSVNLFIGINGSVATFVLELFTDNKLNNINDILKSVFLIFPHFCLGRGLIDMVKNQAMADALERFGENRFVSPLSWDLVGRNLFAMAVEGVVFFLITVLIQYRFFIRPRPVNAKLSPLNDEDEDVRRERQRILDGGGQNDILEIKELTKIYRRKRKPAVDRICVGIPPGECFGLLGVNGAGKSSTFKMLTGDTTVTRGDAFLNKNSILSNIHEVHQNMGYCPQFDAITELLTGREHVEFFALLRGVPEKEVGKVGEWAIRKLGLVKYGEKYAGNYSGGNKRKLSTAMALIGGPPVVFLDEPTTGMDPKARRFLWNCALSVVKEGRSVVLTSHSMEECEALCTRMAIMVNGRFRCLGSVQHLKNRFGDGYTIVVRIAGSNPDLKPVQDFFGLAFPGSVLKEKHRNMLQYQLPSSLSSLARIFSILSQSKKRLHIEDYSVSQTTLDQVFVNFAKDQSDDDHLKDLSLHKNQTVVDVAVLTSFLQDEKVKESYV
# UniProt Q03135: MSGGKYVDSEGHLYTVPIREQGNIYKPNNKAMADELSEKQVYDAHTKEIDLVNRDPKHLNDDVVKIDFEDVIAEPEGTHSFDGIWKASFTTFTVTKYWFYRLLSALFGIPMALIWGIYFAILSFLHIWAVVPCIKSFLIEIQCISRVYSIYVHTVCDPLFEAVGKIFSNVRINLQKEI
# UniProt P63010: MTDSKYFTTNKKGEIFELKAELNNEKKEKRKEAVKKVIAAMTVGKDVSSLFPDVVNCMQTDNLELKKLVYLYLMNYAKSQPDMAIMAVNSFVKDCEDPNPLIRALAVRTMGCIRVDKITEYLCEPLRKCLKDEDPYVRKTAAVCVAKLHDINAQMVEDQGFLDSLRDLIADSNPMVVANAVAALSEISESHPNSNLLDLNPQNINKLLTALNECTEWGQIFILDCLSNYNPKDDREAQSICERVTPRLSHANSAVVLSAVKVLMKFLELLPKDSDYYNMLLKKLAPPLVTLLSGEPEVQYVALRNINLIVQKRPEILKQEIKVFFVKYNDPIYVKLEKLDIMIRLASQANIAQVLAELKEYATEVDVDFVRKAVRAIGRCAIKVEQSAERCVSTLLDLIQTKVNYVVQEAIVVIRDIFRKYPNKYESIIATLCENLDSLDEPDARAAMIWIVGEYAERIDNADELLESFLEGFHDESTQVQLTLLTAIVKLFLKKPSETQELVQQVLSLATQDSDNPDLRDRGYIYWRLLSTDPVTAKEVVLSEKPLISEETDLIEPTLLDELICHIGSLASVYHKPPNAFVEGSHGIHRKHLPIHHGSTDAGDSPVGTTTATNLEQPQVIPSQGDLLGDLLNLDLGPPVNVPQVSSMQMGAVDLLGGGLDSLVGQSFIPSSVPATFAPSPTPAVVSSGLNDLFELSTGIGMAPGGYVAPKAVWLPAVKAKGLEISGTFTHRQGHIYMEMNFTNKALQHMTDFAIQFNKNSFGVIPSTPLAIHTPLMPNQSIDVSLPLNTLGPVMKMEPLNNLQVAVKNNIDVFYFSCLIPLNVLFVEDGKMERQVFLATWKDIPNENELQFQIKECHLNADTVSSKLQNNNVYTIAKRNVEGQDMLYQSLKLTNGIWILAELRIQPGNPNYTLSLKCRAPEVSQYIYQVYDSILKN
# Biological target: ATP-binding cassette transporter A1 (ABCA1) tagged with GFP (UniProt O95477)
# Assay: affinity purification with mass spectrometry; GFP-Trap agarose on lysate of HeLa (ABCA1-GFP) cells treated with recombinant APOE3 or APOE4 (0.2 µM) for 4 h; lysis buffer 0.5% NP40, 350 mM NaCl, 20 mM Hepes, 1.2% Triton X-100; overnight at 4 °C; washed with IP buffer (PBS, 200 mM NaCl, 1 mM EDTA, 0.5% Triton X-100, 1 mM DTT); glycine elution, TCA precipitation, mass spectrometry
row,binding,Substance
1,binds,Caveolin-1 (from UniProt Q03135 1-178)
2,binds,adaptor-related protein complex 2 subunit beta 1 (from UniProt P63010 1-937)

# From paper PMC11792374
